Experimental findings from PubChem BioAssay AID1487 (National Center for Advancing Translational Sciences (NCATS), 2009) are described below.

The list shows a part of the results. Shown are side measurements of this screen, not its main read-out; they come without a call. Most of these compounds were active or inconclusive in the main read-out, so they are no random draw. Potencies come from curve fits of mixed quality, noted in brackets.

A short description of this test: qHTS Assay for Modulators of Lamin A Splicing. The conditions noted are these: HeLa LMNA splicing GFP/RFP minigene ratio, 48 h. The gist of the method:
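S3 HeLa cells stably expressing lamin A-EGFP splicing minigene plus DsRed2, 600 cells/well, 48 h compound exposure at 37C. Laser-scanning cytometry; analysed as GFP (500-530 nm)/RFP (575-640 nm) total intensity ratio; 0.5% DMSO vehicle.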
A general note: Quantitative high-throughput screening tests each substance at several concentrations.

[1] abbreviates: measured here: RFP viability control channel.
Where [2] appears, read: measured here: GFP splicing reporter channel.

The AC50 is the concentration at which the activity in the assay is half-maximal. Consider `CCCN(CCC)C(=O)CSc1nc2ccccc2c(=O)n1C1CCCC1`, for which the concentration at half-maximal activity (AC50) under setting [1] is 35.5 µM [rising, single point].
On to `Cc1cc(C)c2cc(CN(CCCN(C)C)C(=S)NCc3ccccc3)c(=O)[nH]c2c1`, for which the AC50 under setting [1] is 0.126 µM [falling, partial curve, poor fit].
With `O=C(c1ccc(CSc2ccc(Cl)cc2)cc1)N1CCCC1`, the half-maximal activity concentration (AC50) is, setting by setting: under setting [2], 0.0447 µM [rising, full curve]; under setting [1], 7.08 µM [rising, full curve].
As to `O=C(CSc1nc2ccccc2n1Cc1cccc(C(F)(F)F)c1)NCc1ccccc1`, under setting [1], the AC50 was 14.1 µM [rising, single point].
On to `CC1CCC(C(C)C)C(OC(=O)COC(=O)c2ccc(=O)[nH]c2)C1` (configuration not stated), for which the concentration at half-maximal activity (AC50) under setting [2] is 11.2 µM [rising, partial curve].
With `O=C(c1ccco1)N1CCN(C(=O)c2cc3c(s2)-c2ccccc2OC3)CC1`, the AC50 under setting [1] is 25.1 µM [rising, partial curve, poor fit].
For the compound `CN(/C(=N/S(=O)(=O)c1cccs1)c1ccccc1)c1ccc(O)cc1`, the AC50 by setting is: under setting [2], 0.0398 µM [falling, full curve, poor fit]; under setting [1], 0.0398 µM [falling, full curve, poor fit].
Take `COc1ccc(N2CCN(CC(O)COCCOc3ccc(Br)cc3)CC2)cc1` (configuration not stated): the concentration at half-maximal activity (AC50) was 11.2 µM [rising, partial curve] under setting [2] and 14.1 µM [rising, partial curve] under setting [1].
For the compound `BrC(=C\c1ccccc1)/C=N/Nc1nc(N2CCOCC2)nc(N2CCOCC2)n1`, the AC50 under setting [1] was 22.4 µM [rising, single point].
On to `Cc1ccc(S(=O)(=O)C(CNC(=O)C(=O)NCCc2ccc(F)cc2)c2cccs2)cc1` (configuration not stated), for which the AC50 under setting [2] is 1.26 µM [falling, partial curve, poor fit] and the AC50 under setting [1] was 2.51 µM [falling, partial curve, poor fit].
Turning to `Cc1ccc(S(=O)(=O)N(C)C)cc1NC(=O)COC(=O)c1c(C)noc1C`, the AC50 under setting [1] was 22.4 µM [rising, single point].
As to `COCCn1c(=S)[nH]c2cc(C(=O)N3CCN(c4ccc(F)cc4)CC3)ccc2c1=O`, the AC50 under setting [2] was 0.708 µM [falling, partial curve, poor fit].
On to `COC(=O)Nc1ccc(S(=O)(=O)N2CCN(c3ccc(F)cc3)CC2)cc1`, for which the AC50 was 11.2 µM [rising, single point] under setting [2] and 20 µM [rising, single point] under setting [1].
Take `CCc1nnc(NC(=O)c2cccc(S(=O)(=O)N(C)c3ccc(OC)cc3)c2)s1`: the AC50 under setting [1] was 0.0251 µM [rising, full curve, poor fit].
Regarding `COC(=O)c1ccc(S(=O)(=O)NCCSc2nnc3c4ccccc4n(C)c3n2)cc1`, the AC50 runs as follows: under setting [2], 4.47 µM [rising, full curve]; under setting [1], 20 µM [rising, single point].
Take `O=C(Cc1ccccc1)c1c[nH]c(C(=O)NCc2ccncc2)c1`: the AC50 is 11.2 µM [rising, partial curve, poor fit] under setting [2] and 0.00398 µM [rising, full curve, poor fit] under setting [1].
On to `COc1cc2c(cc1OC)CN(c1ccc([N+](=O)[O-])cc1Cl)CC2`, for which the AC50 runs as follows: under setting [2], 14.1 µM [rising, partial curve]; under setting [1], 31.6 µM [rising, single point].
In the case of `CCCNC(=O)NC(=O)CSc1nc(C)cs1`, the AC50 under setting [2] is 0.1 µM [falling, full curve, poor fit].
Turning to `CCSc1nnc(-c2cccc(S(=O)(=O)N(CC)CC)c2)n1Cc1ccccc1`, under setting [1], the AC50 is 28.2 µM [rising, single point].
As for `CCC(O)(CC)C(=O)NN(C(=O)Nc1csc2c1CCCC2)c1ccccc1`, the AC50 under setting [1] was 35.5 µM [rising, single point].
Still for that read-out and setting: next, `CCCCN(CCCC)S(=O)(=O)c1ccc(NC(=O)c2ccc([N+](=O)[O-])cc2Cl)cc1`: 35.5 µM [rising, single point].
As for `Cc1ccc(OCc2cn3cccnc3n2)cc1`, the AC50 under setting [2] is 10 µM [rising, partial curve].
As for `CCOC(=O)c1c(S(=O)(=O)N2CCN(c3cc(Cl)ccc3C)CC2)c(C)n(C)c1C`, the AC50 runs as follows: under setting [2], 1.41 µM [falling, full curve, poor fit]; under setting [1], 0.447 µM [falling, full curve, poor fit].
With `O=C(Cn1c2c(sc1=O)C1c3ccccc3OCC1CS2)Nc1ccc(Cl)cc1` (configuration not stated), the AC50 under setting [1] is 35.5 µM [rising, single point].
The same measure, in the same setting: the result for `CCC(Sc1nc2n[nH]c(C)c2c(=N)n1-c1ccc(Br)cc1)C(=O)N(CC)CC` (configuration not stated) reads 35.5 µM [falling, single point].
For the compound `COc1cc2nc(C3CCC3)nc(N3CCN(c4ccccc4OC)CC3)c2cc1OC`, the half-maximal activity concentration (AC50) under setting [2] is 35.5 µM [rising, single point].
`O=C(c1cccc(C(=O)N2CCN(Cc3ccccc3)CC2)c1)N1CCN(Cc2ccccc2)CC1`: under setting [1], the concentration at half-maximal activity (AC50) was 10 µM [rising, partial curve].
`C=CCN1C(=CCO)[C@H]2C[C@H]3[C@@H]1CC[C@@]31c3ccccc3N3C=C4[C@@H]5N(/C=C/2[C@H]31)c1ccccc1[C@]51CC[C@H]2[C@H]1C[C@@H]4/C(=C/CO)N2CC=C`: the half-maximal activity concentration (AC50) was 0.00891 µM [falling, full curve, poor fit] under setting [2] and 0.00891 µM [falling, partial curve] under setting [1].
Turning to `Clc1ccc(-c2noc(CSc3nnc(-c4ccncc4)n3-c3ccccc3)n2)cc1`, the AC50 under setting [1] was 12.6 µM [rising, partial curve].
On to `O=S1(=O)CCC(NC(=S)SCCOc2ccccc2)C1` (configuration not stated), for which the AC50 under setting [2] was 35.5 µM [falling, single point].
Take `CCCC(=O)N1CCN(c2ccc(NC(=O)c3cc4ccccc4o3)cc2)CC1`: the AC50 under setting [1] is 22.4 µM [rising, single point].
For `O=[N+]([O-])c1cccc(-c2n[nH]c(=S)n2Cc2ccccc2)c1`, the AC50 runs as follows: under setting [2], 4.47 µM [rising, partial curve]; under setting [1], 22.4 µM [rising, single point].
Consider `NC1(C(=O)O)CCCCC1`, for which the AC50 under setting [2] is 0.001 µM [rising, full curve, poor fit].
With `OCCCCNCc1ccc(OCc2ccc(Cl)cc2Cl)cc1`, the AC50 under setting [1] was 35.5 µM [rising, single point].
For `COc1ccccc1CNc1ncncc1-c1ccc(N(C)C)cc1`, the AC50 under setting [2] was 15.8 µM [falling, partial curve, poor fit].
On to `O=c1oc2ccccc2c(O)c1Cc1cc(Cl)c2cccnc2c1O`, for which, under setting [1], the AC50 was 35.5 µM [rising, single point].
On to `COc1cccc(NC(=O)OCCN2CCN(Cc3ccccc3)CCC2=O)c1`, for which the AC50 is, setting by setting: under setting [2], 35.5 µM [rising, single point]; under setting [1], 20 µM [rising, single point].
Turning to `CC1=C(C(=O)NCc2ccco2)C2(CCC(C)CC2)OC1=O` (configuration not stated), under setting [1], the AC50 was 0.2 µM [rising, full curve, poor fit].
As to `COc1ccccc1CN(Cc1cc2cc3c(cc2[nH]c1=O)OCCO3)Cc1nnnn1Cc1ccco1`, the AC50 under setting [2] was 35.5 µM [falling, single point].
Turning to `O=C(NC(c1ccccc1)c1ccccc1)C1CCCC1`, the AC50 under setting [1] was 0.00708 µM [rising, full curve, poor fit].
On to `Cc1nc(-c2ccc(Cl)cc2)sc1CCNC(=O)C(=O)Nc1ccccc1C#N`, for which the AC50 under setting [2] was 12.6 µM [falling, partial curve] and the AC50 under setting [1] was 14.1 µM [falling, partial curve].
In the case of `Cc1cc(N2C(=O)C3C4c5ccccc5C(c5ccccc54)C3C2=O)no1` (configuration not stated), the AC50 under setting [1] is 12.6 µM [rising, single point].
The same measure, in the same setting: next, `c1ccc(-c2nnc(SCc3cn4ccsc4n3)o2)cc1`: 31.6 µM [rising, single point].
For the compound `CCCCN(C(=O)Nc1ccc(OCC)cc1)C1CCN(C(C)=O)CC1`, the concentration at half-maximal activity (AC50) under setting [2] was 3.98 µM [falling, partial curve, poor fit].
As to `CN(C)N1C(N)=C(C#N)C(c2cccc3ccccc23)C2=C1CC(c1ccccc1)CC2=O` (configuration not stated), the AC50 by setting is: under setting [2], 3.55 µM [falling, partial curve, poor fit]; under setting [1], 28.2 µM [falling, single point].
For the compound `COc1ccc(Cn2c(CCC(=O)N3CCN(c4ccccn4)CC3)nc3ncccc3c2=O)cc1`, the AC50 under setting [1] was 35.5 µM [rising, single point].
`CCCc1ccc(OC(=O)c2sc3ncn(Cc4cccc(F)c4)c(=O)c3c2C)cc1`: under setting [2], the AC50 is 35.5 µM [falling, single point].
Regarding `COc1ccc(NS(=O)(=O)c2cc(NC(=O)c3ccc(C)o3)ccc2N2CCCCC2)cc1`, under setting [1], the AC50 was 11.2 µM [rising, partial curve].
With `CN(Cc1ccccc1)C(=O)CSc1nc2ccccc2c(=O)n1Cc1ccco1`, the AC50 is 2.82 µM [rising, partial curve] under setting [2] and 12.6 µM [rising, partial curve] under setting [1].
On to `COc1ccc(C(=O)CSc2nc3[nH]ncc3c(=O)[nH]2)cc1`, for which the AC50 was 0.0282 µM [falling, full curve, poor fit] under setting [2] and 0.0398 µM [falling, full curve, poor fit] under setting [1].
`CC1=Nn2c(nc3sc4c(c3c2=O)CCCC4)SC1`: the AC50 under setting [1] is 35.5 µM [rising, single point].
Turning to `CCCCN(CCCC)C(=O)c1cc2ccccc2c(=O)o1`, the concentration at half-maximal activity (AC50) under setting [1] was 35.5 µM [rising, single point].
As for `O=C(Nc1ncc(Cc2cccc(Cl)c2)s1)c1ccc([N+](=O)[O-])cc1`, the half-maximal activity concentration (AC50) is 6.31 µM [rising, partial curve] under setting [2] and 7.08 µM [rising, partial curve] under setting [1].
Regarding `O=C(N/N=C/c1ccco1)c1cc(-c2cccc(Br)c2)nc2ccccc12`, the AC50 under setting [1] is 25.1 µM [rising, single point].
On the same count and under the same terms, next, `CN(C)c1ccc(NC(=S)c2ccccn2)cc1`: 15.8 µM [rising, single point].
